Laboratory results as given in patent US20150259419A1 (PROTHENA BIOSCIENCES, published 2015).
Results are given in words; binding and its absence hold for the method and conditions named. Some binding calls cover weakened binding; strength is not graded here. For some of these results: Sequences can lack the tags named with a protein. Each block holds one binder with its values, some of them ahead of it.

Legend:
[1] = target: T1, combination of human MCAM domains 1 and 2 (MCAMhFc domain construct) (human) (UniProt P43121); assay: ForteBio Octet Red, MCAMhFc domains on anti-human IgG Fc biosensors, antibody at 5 ug/ml
T1 sequence: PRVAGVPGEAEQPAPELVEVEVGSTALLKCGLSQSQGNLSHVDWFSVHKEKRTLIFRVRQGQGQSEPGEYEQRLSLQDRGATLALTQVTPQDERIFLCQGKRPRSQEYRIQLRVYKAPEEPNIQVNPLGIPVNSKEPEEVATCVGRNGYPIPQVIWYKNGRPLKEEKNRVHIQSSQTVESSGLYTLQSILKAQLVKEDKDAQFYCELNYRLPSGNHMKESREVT

[2] = target: T2, human MCAM, full length, expressed on transfected cells (human) (UniProt P43121); assay: affinity experiments, data not shown
T2 sequence: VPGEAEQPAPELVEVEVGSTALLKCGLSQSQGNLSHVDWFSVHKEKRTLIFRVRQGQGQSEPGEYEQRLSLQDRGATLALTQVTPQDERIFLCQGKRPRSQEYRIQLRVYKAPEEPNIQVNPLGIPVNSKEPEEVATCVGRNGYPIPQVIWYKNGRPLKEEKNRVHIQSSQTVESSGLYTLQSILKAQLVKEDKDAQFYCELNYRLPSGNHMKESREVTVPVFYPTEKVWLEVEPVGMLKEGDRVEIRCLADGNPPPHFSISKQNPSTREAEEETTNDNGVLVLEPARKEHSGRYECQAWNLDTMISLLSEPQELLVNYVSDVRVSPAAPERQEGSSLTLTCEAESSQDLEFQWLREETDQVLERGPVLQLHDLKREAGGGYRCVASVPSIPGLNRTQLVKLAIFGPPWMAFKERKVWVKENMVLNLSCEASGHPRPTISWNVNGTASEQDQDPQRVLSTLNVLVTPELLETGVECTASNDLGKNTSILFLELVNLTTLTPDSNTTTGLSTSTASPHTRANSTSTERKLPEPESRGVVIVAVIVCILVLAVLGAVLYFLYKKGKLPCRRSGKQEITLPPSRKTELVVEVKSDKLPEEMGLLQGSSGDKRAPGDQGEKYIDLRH

[3] = target: T3, full length MCAMhFc protein (extracellular domain of human MCAM fused to human IgG) (human) (UniProt P43121); assay: summary of Examples 2 and 3
T3 sequence: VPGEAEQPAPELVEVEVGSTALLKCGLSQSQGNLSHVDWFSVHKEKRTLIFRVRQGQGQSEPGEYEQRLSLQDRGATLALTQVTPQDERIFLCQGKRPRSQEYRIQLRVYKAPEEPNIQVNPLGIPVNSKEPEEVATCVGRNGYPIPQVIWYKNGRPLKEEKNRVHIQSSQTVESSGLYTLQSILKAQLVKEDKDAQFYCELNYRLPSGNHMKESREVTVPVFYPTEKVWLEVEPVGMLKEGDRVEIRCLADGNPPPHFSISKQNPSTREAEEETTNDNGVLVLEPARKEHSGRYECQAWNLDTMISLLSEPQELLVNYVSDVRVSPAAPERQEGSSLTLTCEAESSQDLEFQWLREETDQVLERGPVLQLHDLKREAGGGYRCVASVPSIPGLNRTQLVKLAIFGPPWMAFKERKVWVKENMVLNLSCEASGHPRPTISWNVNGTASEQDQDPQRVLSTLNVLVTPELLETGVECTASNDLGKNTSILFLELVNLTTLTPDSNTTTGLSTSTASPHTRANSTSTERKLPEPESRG

binding [1]: binds
B1: rat anti-human MCAM monoclonal antibody clone 2120.4.19 (antibody, V domains shown)
VH: QVQLKESGPGLVQPSQTLSLTCTVSGFSLTSNGVSWVRQPPGKGLEWIAAISSGGTTYYNSAFKSRLSISRNTSKSQVLLKMNSLQTEDTAMYFCARRYGYGWYFDFWGPGTMVTVSS
VL: DIRMTQSPSLLSASVGDRVTLNCKASQNIYNSLAWYQQKLGEGPKVLIPNANSLQTGIPSRFSGSGSGTDFTLTISSLQPEDFATYFCQQFYSGYTFGAGTKLELK
notes: also called m2120

binding [2]: binds | binding [3]: binds | binding [1]: binds
B2: rat anti-human MCAM monoclonal antibody clone 2107.4.10 (antibody, V domains shown)
VH: QVQLKESGPGLVQSSQTLSLTCTVSGFSLTSNGVSWVRQPPGKGLEWIAAISSGGSTYYNSAFKSRLSISRNTSKSQVLLKMNSLQTEDTGMYFCARHRPFYFDYWGQGVMVTVSS
VL: DIQVTQSPSLLSASVGDRVTLNCKGSQNIYKSLAWFRLKRGEAPKLLIYDANSLQTGIPSRFSGSGSGTDFTLTITSLQPEDVATYFCQQYYSGYTFGAGTKLELK
